# From PubChem BioAssay AID493014 (National Center for Advancing Translational Sciences (NCATS), 2011)
# This is one part of the list. Further columns of the screen follow, without active or inactive calls. Most of these compounds were active or inconclusive in the main read-out, so they are no random draw. Words in brackets tell the shape of the fitted curve; partial curves, single points and poor fits give uncertain potencies.
# Assay: qHTS Assay to Find Inhibitors of Chronic Active B-Cell Receptor Signaling
# Conditions: ABC-DLBCL IkBa-CBG/CBR reporter, luminescence ratio (green luciferase fused to IkBa over red control in TMD8 lymphoma cells), 4 h
# Summary of the method: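 Doxycycline induced both beetle luciferases in TMD8 lymphoma cells; IKK-driven degradation limits the IkappaBalpha-fused green signal, while red luminescence normalises for cell number and nonspecific effects. Compounds tested up to 46 uM, 4 hrs.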
# [1] = measured here: CBR red luminescence, cell number
# [2] = measured here: IkBa-CBG green luminescence
smiles,measurement,setting,value
O=c1c2ccccc2nc(COc2ccccc2)n1/N=C/c1ccc(O)c(O)c1,AC50,[1],"35.5 µM [falling, single point]"
O=C(Nc1cccc2ccccc12)NC1CCS(=O)(=O)C1 (configuration not stated),AC50,[1],"12.6 µM [rising, partial curve, poor fit]"
O=C(c1ccco1)N1CCN(C(=O)c2ccc(-c3ccc(Cl)cc3)o2)CC1,AC50,[1],"4.61 µM [falling, full curve, poor fit]"
COc1cccc(NC(=S)NC(=O)Cc2ccc(Cl)cc2)c1,AC50,[1],"35.5 µM [falling, single point]"
O=C(NCC1CCCO1)c1ccc(N2CCCCC2)c([N+](=O)[O-])c1 (configuration not stated),AC50,[1],"7.08 µM [rising, full curve, poor fit]"
Nc1nc(-c2ccccc2)c(N=Nc2cccc3ccccc23)s1,AC50,[1],"29.1 µM [rising, single point]"
Nc1ccc(C(=O)N2CCN(S(=O)(=O)c3ccc4c(c3)OCCCO4)CC2)cc1[N+](=O)[O-],AC50,[1],"7.31 µM [rising, partial curve, poor fit]"
Clc1cccc(Cl)c1COc1ccncc1,AC50,[1],"29.1 µM [rising, single point]"
COc1ccccc1-c1nc(-c2ccncc2)no1,AC50,[1],"17.8 µM [falling, single point]"
O=C(CSc1ncnc2c1nnn2Cc1ccccc1F)NCC1CCCO1 (configuration not stated),AC50,[1],"14.1 µM [falling, partial curve]"
Nc1ccc(-c2nc3ccccc3[nH]2)cc1,AC50,[1],"16.4 µM [falling, single point]"
CCCCCc1nnc(NC(=O)C2COc3ccccc3O2)s1 (configuration not stated),AC50,[1],"2.24 µM [rising, full curve, poor fit]"
Cc1ccc(NC(=O)/C(C#N)=C/c2ccc(Sc3nc(C)cc(C)n3)o2)cc1,AC50,[1],"1.03 µM [rising, full curve, poor fit]"
CC(C)c1nnc(NC(=O)CCS(=O)(=O)c2ccccc2)s1,AC50,[1],"11.2 µM [falling, partial curve, poor fit]"
Cc1ccc(Nc2nc(-c3sc(NC(=O)c4ccccc4)nc3C)cs2)cc1,AC50,[1],"8.91 µM [falling, partial curve, poor fit]"
Cc1ccc(CNC(=O)c2cc3c(=O)n4ccccc4nc3n(Cc3ccco3)c2=N)cc1,AC50,[1],"6.31 µM [falling, single point]"
COc1cccc(C(=O)O/N=C(\N)c2ccc(C)cc2)c1,AC50,[1],"35.5 µM [falling, single point]"
O=C(Nc1ccc(F)cc1)Nc1nnc(-c2ccco2)s1,AC50,[1],"15.8 µM [falling, single point]"
CCc1ccc(O)c(CNCCNCc2cc(CC)ccc2O)c1,AC50,[1],"3.66 µM [falling, full curve, poor fit]"
CC1CCN(c2nc3c(c(=O)n(C)c(=O)n3C)n2CCSc2nc3ccccc3o2)CC1,AC50,[1],"0.013 µM [falling, full curve, poor fit]"
CCC(C)NC(=O)c1nn(Cc2ccccc2)c(=O)c2ccccc12 (configuration not stated),AC50,[1],"28.2 µM [falling, single point]"
Cc1ccc([C@@H]2CC=C(C(=O)O)[C@H](c3ccc(C(C)(C)C)cc3)N2S(=O)(=O)c2ccc(C)cc2)cc1,AC50,[1],"23.1 µM [falling, single point]"
C/C(=N/NC(=O)c1cccs1)c1cccc(NC(=O)C2CC2)c1,AC50,[1],"35.5 µM [falling, single point]"
COC(=O)/C(=N/Nc1ccccc1C)N1CCCc2ccccc21,AC50,[1],"23.1 µM [falling, partial curve, poor fit]"
O=c1[nH]c(NC2CCCCC2)nnc1Cc1ccccc1,AC50,[1],"35.5 µM [rising, single point]"
O=C(Nc1ccc(-c2nnco2)cc1)c1ccccc1,AC50,[1],"8.2 µM [falling, partial curve]"
CC(=O)Nc1ccc(S(=O)(=O)N2CCSc3ccccc32)cc1,AC50,[1],"29.1 µM [falling, single point]"
same,AC50,[2],"2.91 µM [falling, full curve]"
COCC(=O)Nc1cc(OC)cc(OC)c1,AC50,[1],"2.59 µM [falling, partial curve, poor fit]"
CCN1CCN(c2cc(C)c3cc(NC(=S)N4CCOCC4)ccc3n2)CC1,AC50,[1],"17.8 µM [falling, single point]"
Cc1ccnc(N2CCC(C(=O)Nc3ccc4c(c3)OCCO4)CC2)n1,AC50,[1],"12.6 µM [falling, partial curve, poor fit]"
CCn1nnc(NC(=O)c2cccnc2Cl)n1,AC50,[1],"16.4 µM [rising, single point]"
CN(c1cccc(Cl)c1)S(=O)(=O)c1cccc(C(=O)Nc2nc3ccccc3[nH]2)c1,AC50,[1],"16.4 µM [falling, single point]"
COc1ccccc1N1CCN(S(=O)(=O)c2ccc3c4c(cccc24)C(=O)N3C)CC1,AC50,[1],"5.17 µM [falling, single point]"
same,AC50,[2],"6.51 µM [rising, partial curve, poor fit]"
COc1cc2c(cc1NC(=O)CSCC(=O)O)oc1ccccc12,AC50,[1],"7.08 µM [falling, partial curve]"
C[C@@H]1CN([C@H](C)CO)C(=O)c2cccc(NS(=O)(=O)c3cccs3)c2O[C@H]1CN(C)Cc1ccccc1,AC50,[1],"20.6 µM [falling, single point]"
COCCNC(=S)N1CCc2cc(OC)c(OC)cc2C1COc1ccc(F)cc1 (configuration not stated),AC50,[1],"10 µM [rising, partial curve, poor fit]"
CCC(CO)Nc1ncnc2c1cnn2-c1ccc(Cl)cc1 (configuration not stated),AC50,[1],"11.2 µM [falling, partial curve]"
COc1cc(/C=C2/SC(=S)N(CCC(=O)Nc3ccccc3)C2=O)cc(OC)c1OC,AC50,[1],"14.1 µM [falling, single point]"
Cc1ccccc1NC(=O)COc1ccc(Br)cc1C,AC50,[1],"0.58 µM [rising, partial curve, poor fit]"
C[C@H]1CN([C@@H](C)CO)C(=O)c2cc(NC(=O)C3CCCCC3)ccc2O[C@H]1CN(C)S(=O)(=O)c1ccccc1,AC50,[1],"0.184 µM [rising, full curve, poor fit]"
C=CCn1c(SCCC)nc(O)cc1=O,AC50,[1],"29.1 µM [falling, single point]"
CCCCCCCCCCCCN1C(=O)CSC1c1cccnc1 (configuration not stated),AC50,[1],"35.5 µM [falling, single point]"
COc1ccccc1N=Cc1c(C)c(C#N)c2[nH]c3ccccc3n2c1=O,AC50,[1],"22.4 µM [falling, single point]"
CCCC/C(O)=C1\C(=O)CCCC1=NCCc1c(C)[nH]c2ccccc12,AC50,[1],"22.4 µM [falling, single point]"
COc1ccc(OC)c(NC(=O)CSC2=Nc3ccccc3C3=NC(CC(=O)NCc4ccc5c(c4)OCO5)C(=O)N23)c1 (configuration not stated),AC50,[1],"35.5 µM [falling, single point]"
O=C(OCc1ccccc1)c1ccccc1O,AC50,[1],"29.1 µM [rising, single point]"
O=C1CSC(=S)N1c1ccc(F)cc1,AC50,[1],"35.5 µM [falling, single point]"
CCOC(=O)c1c(C)oc2ccc(NS(=O)(=O)c3ccc4c5c(cccc35)C(=O)N4)cc12,AC50,[1],"18.4 µM [falling, single point]"
CCc1cc2c(=O)n(Cc3ccco3)c(SCc3c(C)noc3C)nc2s1,AC50,[1],"29.1 µM [falling, single point]"
O=C(Nc1nnc(S(=O)(=O)N2CCOCC2)s1)c1ccccc1,AC50,[1],"6.31 µM [rising, single point]"
N#Cc1nc(Cc2ccccc2)oc1N1CCCC1,AC50,[1],"5.62 µM [rising, full curve, poor fit]"
COc1ccc2c(c1)-c1nc(/N=C/c3c(O)ccc4ccccc34)sc1CC2,AC50,[1],"4.61 µM [falling, full curve]"
COc1cc2c(cc1NC(=O)CSc1nnc(Cc3cccs3)n1Cc1ccco1)oc1ccccc12,AC50,[1],"0.146 µM [falling, full curve]"
CCN(CCCNC(=O)c1ccc2c(c1)NC(=O)CN2C)c1cccc(C)c1,AC50,[1],"10 µM [falling, partial curve]"
Cc1cc(O)c(-c2cc(C(=O)NCCc3ccc(S(N)(=O)=O)cc3)[nH]n2)cc1C,AC50,[1],"12.6 µM [rising, single point]"
O=C(N/N=C/c1ccc(O)cc1O)NC12CC3CC(CC(C3)C1)C2,AC50,[1],"7.94 µM [falling, partial curve]"
COc1ccc(CCNC(=O)CCCOc2cc(=O)n(C)c3ccccc23)cc1OC,AC50,[1],"1.78 µM [rising, full curve]"
CNc1ccc(S(=O)(=O)NC)cc1[N+](=O)[O-],AC50,[1],"35.5 µM [rising, partial curve, poor fit]"
O=C(CCN1CCOCC1)c1ccc(Br)cc1,AC50,[1],"35.5 µM [falling, single point]"
NC(=O)c1ccccc1OCc1nc2ccccc2s1,AC50,[1],"11.2 µM [falling, partial curve, poor fit]"
O=S(=O)(c1ccc(SCCO)nc1)N1CCOCC1,AC50,[1],"1.16 µM [falling, partial curve, poor fit]"
O=[N+]([O-])c1ccc(S(=O)(=O)Nc2cccc(-c3ccc(N4CCCC4)nn3)c2)cc1,AC50,[1],"23.1 µM [rising, single point]"
CC(=O)c1cccc(NC(=O)Cc2cccs2)c1,AC50,[1],"4.47 µM [rising, partial curve, poor fit]"
Cc1csc(NC(=O)CCC(=O)c2cccs2)n1,AC50,[1],"35.5 µM [falling, single point]"
O=C(Nc1nc(-c2ccncc2)cs1)c1ccc(S(=O)(=O)N2CCOCC2)cc1,AC50,[1],"2.82 µM [falling, partial curve]"

# Taken from the entries so far (two entries):
smiles,measurement,setting,value
CNc1ccc(S(=O)(=O)NC)cc1[N+](=O)[O-],AC50,[1],"35.5 µM [rising, partial curve, poor fit]"
O=C(CCN1CCOCC1)c1ccc(Br)cc1,AC50,[1],"35.5 µM [falling, single point]"
